The test system of this assay is L1210 leukemia ip in BDF1 mice, survival T/C. The assay is described as follows: NCI In Vivo Anticancer Drug Screen. Data for tumor model L1210 Leukemia (intraperitoneal) in B6D2F1 (BDF1) mice. Conditions: T/C endpoint: mean survival time, higher T/C = longer survival.
The mark [1] stands for this setting: dose: 200.0 mg/kg/injection, schedule: Q01DX009 (ip), vehicle: acetone.
Setting [2] is: dose: 200.0 mg/kg/injection, schedule: Q04DX003 (ip), vehicle: saline.
Where [3] appears, read: dose: 400.0 mg/kg/injection, schedule: Q04DX003 (ip), vehicle: saline.
The mark [4] stands for this setting: dose: 100.0 mg/kg/injection, schedule: Q01DX001 (ip), vehicle: Klucel (hydroxypropylcellulose) (HPC).
[5] abbreviates: dose: 400.0 mg/kg/injection, schedule: Q01DX009 (ip), vehicle: Klucel (hydroxypropylcellulose) (HPC).
The mark [6] stands for this setting: dose: 400.0 mg/kg/injection, schedule: Q01DX001 (ip), vehicle: saline.
[7] abbreviates: dose: 400.0 mg/kg/injection, schedule: Q01DX009 (ip), vehicle: saline with Tween-80.

The list shows only some results of the screen, not a fair sample: it is rich in T/C values a quarter to a half above the control, in often repeated tests (any T/C) and in doses without a T/C. Further doses and runs are listed elsewhere. T/C gives the treated animals as a percentage of the vehicle group. Some entries give survivors of the animals treated and no T/C: the source holds a T/C of zero for them, seemingly a mark for toxic or unscored doses. Some survivor counts are full or nearly so, which does not show that the dose was tolerated: the source hardly ever lists a survival T/C far under the control, and the zero likely stands for such cases as well. Counts of survivors are from the toxicity check (mostly the fifth day) where no day follows; animals may have died later. Schedule codes are those of the source, taken here to give the interval after Q, in days (D) or hours (H), and the number of doses after X. Some schedule codes hold Z or #, which are not explained here. Some doses were run more than once; their values stand side by side, smallest first. For survival time, the PubChem record calls one and a half times the control and up active, and a quarter to a half above the control has no call in these data; cut-offs in other NCI protocols can differ. Some T/C values carry the count of animals alive at the toxicity check (mostly the fifth day); without a count, all were alive then.

Turning to `NC(=S)N/N=C/c1ccc(OC(=O)C23CC4CC(CC(C4)C2)C3)cn1`, the survivor count (dose: 220.0 mg/kg/injection, schedule: Q01DX009 (ip), vehicle: saline with Tween-80) was 10 of 10; the survivor count (dose: 335.0 mg/kg/injection, schedule: Q01DX009 (ip), vehicle: saline with Tween-80) was 9 of 10; the survivor count (dose: 500.0 mg/kg/injection, schedule: Q01DX009 (ip), vehicle: saline with Tween-80) is given as 9 of 10; the survivor count (dose: 750.0 mg/kg/injection, schedule: Q01DX009 (ip), vehicle: saline with Tween-80) is given as 10 of 10; the survivor count (dose: 2640.0 mg/kg/injection, schedule: Q01DX001 (ip), vehicle: saline with Tween-80) is given as 10 of 10; the survivor count (dose: 4000.0 mg/kg/injection, schedule: Q01DX001 (ip), vehicle: saline with Tween-80) is listed as 10 of 10. Besides, the survivor count is 9 of 10 (dose: 6000.0 mg/kg/injection, schedule: Q01DX001 (ip), vehicle: saline with Tween-80) and 3 of 10 (dose: 9000.0 mg/kg/injection, schedule: Q01DX001 (ip), vehicle: saline with Tween-80).

For the molecule `CC(=O)NC(CSC(c1ccccc1)(c1ccccc1)c1ccccc1)C(=O)O` (configuration not stated), the survivor count runs as follows: (dose: 100.0 mg/kg/injection, schedule: Q01DX009 (ip), vehicle: saline) 4 of 8; (dose: 200.0 mg/kg/injection, schedule: Q01DX009 (ip), vehicle: saline) 0 of 8.

`[Cl][Hg][c]1ccc2ccccc2c1`: the survivor count (dose: 6.25 mg/kg/injection, schedule: Q01DX009 (ip), vehicle: saline with Tween-80) is listed as 3 of 3 and the survivor count (dose: 25.0 mg/kg/injection, schedule: Q01DX009 (ip), vehicle: saline with Tween-80) is 2 of 3.

In the case of `COc1c(Cl)cc([N+](=O)[O-])c(OC)c1[N+](=O)[O-]`, the survivor count is 0 of 6 under setting [1] and 1 of 6 (dose: 400.0 mg/kg/injection, schedule: Q01DX001 (ip), vehicle: acetone).

Regarding `O=C1OCC/C1=C/c1cccc(O)c1`, the survivor count runs as follows: (dose: 12.5 mg/kg/injection, schedule: Q04DX002 (ip), vehicle: Klucel (hydroxypropylcellulose) (HPC)) 0 of 3; (dose: 25.0 mg/kg/injection, schedule: Q04DX002 (ip), vehicle: Klucel (hydroxypropylcellulose) (HPC)) 1 of 3; (dose: 50.0 mg/kg/injection, schedule: Q04DX002 (ip), vehicle: Klucel (hydroxypropylcellulose) (HPC)) 0 of 3.

Consider `CCCC[N+](CC)(CC)CCOC(=O)C1C2CC3OC(=O)C1C3C2` (configuration not stated), for which the survivor count reads like this: under setting [2], 0 of 3; under setting [3], 0 of 3.

With `Clc1ccc2c(c1)/C(=C/c1cccnc1)c1cc(Cl)cc(Cl)c1-2`, the survivor count runs as follows: under setting [4], 6 of 6; under setting [5], 6 of 6.

As for `CSc1cc(C(=O)Nc2ccc(C3=NCCN3)cc2)ccc1C(=O)Nc1ccc(C2=NCCN2)cc1`, the T/C was 128 % of control (dose: 1.0 mg/kg/injection, schedule: Q01DX Z (ip), vehicle: carboxymethylcellulose (CMC)); 140 % of control (dose: 2.0 mg/kg/injection, schedule: Q01DX Z (ip), vehicle: carboxymethylcellulose (CMC)); 131 % of control (dose: 2.5 mg/kg/injection, schedule: Q01DX015 (ip), vehicle: methylcellulose (MC)); 149 % of control (dose: 4.0 mg/kg/injection, schedule: Q01DX Z (ip), vehicle: carboxymethylcellulose (CMC)); 133 % of control (dose: 5.0 mg/kg/injection, schedule: Q01DX015 (ip), vehicle: methylcellulose (MC)); 139 % of control (dose: 25.0 mg/kg/injection, schedule: Q01DX001 (ip), vehicle: methylcellulose (MC)). In addition, the T/C runs as follows: (dose: 50.0 mg/kg/injection, schedule: Q01DX001 (ip), vehicle: methylcellulose (MC)) 120, 128, 130, 168 % of control; (dose: 100.0 mg/kg/injection, schedule: Q01DX001 (ip), vehicle: methylcellulose (MC)) 144, 145, 151 [8 of 10 alive], 166 % of control [4 of 5 alive]. The survivor count was 5 of 6 (dose: 80.0 mg/kg/injection, schedule: Q01DX015 (ip), vehicle: methylcellulose (MC)); 6 of 6 (dose: 80.0 mg/kg/injection, schedule: Q01DX Z (ip), vehicle: carboxymethylcellulose (CMC)); 0 of 10 and 2 of 9 (dose: 150.0 mg/kg/injection, schedule: Q01DX001 (ip), vehicle: methylcellulose (MC)); 0 of 6 (dose: 200.0 mg/kg/injection, schedule: Q01DX001 (ip), vehicle: methylcellulose (MC)).

As for `Cc1ccc(Oc2cccc3c2CC[N+](C)(C)C3)cc1`, the survivor count (dose: 25.0 mg/kg/injection, schedule: Q01DX001 (ip), vehicle: Klucel (hydroxypropylcellulose) (HPC)) is 5 of 5; the survivor count under setting [4] is recorded as 0 of 6; the survivor count (dose: 200.0 mg/kg/injection, schedule: Q01DX001 (ip), vehicle: Klucel (hydroxypropylcellulose) (HPC)) is given as 1 of 6; the survivor count (dose: 400.0 mg/kg/injection, schedule: Q01DX001 (ip), vehicle: Klucel (hydroxypropylcellulose) (HPC)) is reported as 0 of 6.

With `O=C(NC(CSC(=O)c1ccccc1)C(=O)O)OCc1ccccc1` (configuration not stated), under setting [5], the survivor count was 3 of 6.

In the case of `Cc1ccc2nc(CCl)[nH]c2c1`, the survivor count under setting [6] is 0 of 4.

Turning to `N#Cc1c(F)c(F)c(C(F)(F)F)c(F)c1F`, the survivor count by setting is: (dose: 100.0 mg/kg/injection, schedule: Q01DX009 (ip), vehicle: other) 2 of 6; (dose: 200.0 mg/kg/injection, schedule: Q01DX009 (ip), vehicle: other) 0 of 6; (dose: 400.0 mg/kg/injection, schedule: Q01DX009 (ip), vehicle: other) 0 of 6.

`CC(C)=C(c1ccc(Br)cc1)c1ccc(Br)cc1`: the survivor count under setting [1] is recorded as 6 of 6 and the survivor count (dose: 400.0 mg/kg/injection, schedule: Q01DX009 (ip), vehicle: acetone) is listed as 6 of 6.

As for `C[C@]12CC[C@H](O)C[C@H]1CC[C@@H]1[C@@H]2CC[C@]2(C)[C@@H](C3=CC(=O)OC3)CC[C@]12O`, the survivor count reads like this: (dose: 100.0 mg/kg/injection, schedule: Q01DX001 (ip), vehicle: carboxymethylcellulose (CMC)) 1 of 6; (dose: 200.0 mg/kg/injection, schedule: Q01DX001 (ip), vehicle: carboxymethylcellulose (CMC)) 1 of 6; (dose: 400.0 mg/kg/injection, schedule: Q01DX001 (ip), vehicle: carboxymethylcellulose (CMC)) 1 of 6.

For the molecule `CCC1CSC(=S)N1` (configuration not stated), the survivor count reads like this: (dose: 12.5 mg/kg/injection, schedule: Q01DX009 (ip), vehicle: acetone) 3 of 6; (dose: 18.0 mg/kg/injection, schedule: Q04DX003 (ip), vehicle: saline) 6 of 6; (dose: 28.0 mg/kg/injection, schedule: Q04DX003 (ip), vehicle: saline) 1 of 6; (dose: 40.0 mg/kg/injection, schedule: Q04DX003 (ip), vehicle: saline) 0 of 6; (dose: 100.0 mg/kg/injection, schedule: Q01DX001 (ip), vehicle: saline) 0 of 6; (dose: 200.0 mg/kg/injection, schedule: Q01DX001 (ip), vehicle: saline) 0 of 6. In addition, the survivor count under setting [6] was 0 of 6.

For `Cc1csc(C)n1`, the survivor count under setting [7] is listed as 0 of 6.

On to `c1ccc(CN2C3CCCC2CC(c2ccccc2)C3)cc1` (configuration not stated), for which the survivor count (dose: 400.0 mg/kg/injection, schedule: Q04DX002 (ip), vehicle: Klucel (hydroxypropylcellulose) (HPC)) is on record as 0 of 3.

Regarding `CCCCCCCCCCOC(=O)CCN1CC1`, the survivor count (dose: 100.0 mg/kg/injection, schedule: Q01DX009 (ip), vehicle: saline with Tween-80) is 4 of 6; the survivor count (dose: 200.0 mg/kg/injection, schedule: Q01DX009 (ip), vehicle: saline with Tween-80) is reported as 0 of 6; the survivor count under setting [7] is recorded as 0 of 6; the survivor count (dose: 400.0 mg/kg/injection, schedule: Q04DX003 (ip), vehicle: saline with Tween-80) is 6 of 6.

As to `COc1ccc(CCNC2C3CC4CC(C3)CC2C4)cc1OC` (configuration not stated), the survivor count by setting is: under setting [2], 1 of 3; under setting [3], 1 of 3.

For the origin of these results see PubChem BioAssay AID248 (DTP/NCI, 2004).
